{
  "source": "patent US4342774A",
  "about": "“N-Acylcarnosine aluminum salt, its preparation, and a digestive ulcer remedy containing such salt” (Nippon Chemiphar Co., Ltd., priority 1979, dated 1982)",
  "test_system": "Shay's ulcer",
  "assay": "Shay's ulcer (pylorus ligation), inhibitory effect, rats",
  "assay_type": "in vivo, rat (male Donryu strain)",
  "details": "2,000 mg/kg, P.O., immediately after pylorus ligation",
  "method": "It will be noted that as control compounds for the purposes of comparison, use was made of L-carnosine, L-glutamine, N-acetyl-L-glutamine aluminum and aluminum sucrose sulfate which are known to have an anti-ulcer effect. The anti-ulcer effects and degrees of toxicity of the N-acylcarnosine aluminum compounds according to the invention were determined using rats in which instances various gastric ulcer models of rats were utilized to estimate the anti-ulcer effects.\nShay's ulcer: Groups of ten male Donryu strain rats each weighing 210 to 230 g were deprived of food for 48 hours. The pylorus of each rat was ligated according to the method of Shay et al [Gastroenterology, 5, 43-61 (1945)]. Each of the animals was allowed to stand abstained from food and water for further 14 hours and then sacrificed to remove its stomach. After collection of the gastric juice, the ulcerated area (mm^2) in the forestomach of each rat was measured under a dissecting microscope (10x). The total area (mm^2) of all the lesions of each rat was indicated as an ulcer index. Test medicine samples were given orally immediately after the pylorus ligation.",
  "note": "“And” between values parts separate entries of the source, which are not always exact repeats. Equal entries are not always repeated. The name of at least one read-out is uncertain.",
  "data": [
    {"smiles": "CC(=O)N[C@@H](CCC(N)=O)C(=O)O.[Al]", "note": "[N-Acetyl-L-glutamine aluminum, N-acetyl-L-glutamine aluminum]", "values": [
      {"measurement": "Ulcer index (total area of all lesions)", "result": "1.0 ± 0.6 mm^2 and 0.7 ± 0.6 mm^2 and 0.9 ± 0.7 mm^2"}
    ]}
  ]
}
